# Reference: paper PMC5996148
# “And” between values parts separate entries of the source, which are not always exact repeats. Equal values may be shown once. This is one part of the list. For some of these results: The exact form of the protein is not confirmed.
# Legend:
# Experiment in all cases: protein microarray (ProtoArray v5.0), streptavidin-Alexa Fluor 647
# Settings in all cases: 3'-biotin; 20 mM Tris (pH 7.5), 5 mM MgCl2, 100 mM KCl, 0.1% Tween-20, A/T-rich and random oligonucleotide blockers; temperature not stated; high values mean tight binding
# IL1F8 (human) = tested on: IL1F8 (human)
# IL1RN (human) = tested on: IL1RN (human)
# IL2 (human) = tested on: IL2 (human)
# IL20RB (human) = tested on: IL20RB (human)
# IL22 (human) = tested on: IL22 (human)
# IL27 (human) = tested on: IL27 (human)
# IL3 (human) = tested on: IL3 (human)
# IL32 (human) = tested on: IL32 (human)
# IL4 = target: T1, IL4 (UniProt P05112)
# T1 sequence: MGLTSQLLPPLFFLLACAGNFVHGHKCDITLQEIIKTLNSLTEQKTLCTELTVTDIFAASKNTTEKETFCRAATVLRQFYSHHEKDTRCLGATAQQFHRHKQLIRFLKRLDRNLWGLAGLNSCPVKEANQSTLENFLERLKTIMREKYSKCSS
# IL5 (human) = tested on: IL5 (human)
sequence,measurement,setting,value
GGGAGGCTGAGGCAGG [G4-1 biotinylated (PQS2)],binding signal,IL1F8 (human),-0.359 z-score
same,binding signal,IL1RN (human),-0.305 z-score
same,binding signal,IL2 (human),-0.317 z-score
same,binding signal,IL20RB (human),-0.301 z-score
same,binding signal,IL22 (human),-0.354 z-score
same,binding signal,IL27 (human),-0.313 z-score
same,binding signal,IL3 (human),-0.283 z-score
same,binding signal,IL32 (human),-0.323 z-score and -0.342 z-score
same,binding signal,IL4,-0.322 z-score
same,binding signal,IL5 (human),-0.346 z-score

# A second format for some results above.
sequence	measurement	setting	value
GGGAGGCTGAGGCAGG [G4-1 biotinylated (PQS2)]	binding signal	IL4	-0.322 z-score
same	binding signal	IL5 (human)	-0.346 z-score
